Results are given in words; binding and its absence hold for the method and conditions named. In cells and extracts the contact can be indirect.
Legend:
[1] = molecular target: HA-tagged B56α1 (PP2A regulatory subunit B56α1) (UniProt Q15172); test: co-IP; HA-B56 immunoprecipitated with anti-HA antibodies and protein G Sepharose from lysates of permanently B56-transfected Calu1 cells (50 mM Tris-HCl pH 7.4, 150 mM NaCl, 1% NP-40, 0.25% sodium deoxycholate); co-precipitated endogenous proteins detected by western blotting; 2x10^6 cells (6x10^6 cells for B56β1 with C subunit); in Figure 7A cells stimulated with EGF and loaded on collagen, 0 to 60 min
[2] = molecular target: HA-tagged B56β1 (PP2A regulatory subunit B56β1) (UniProt Q15173); test: as above

By UniProt entry, the sequences of proteins in these tests, tags left out.
UniProt Q15172: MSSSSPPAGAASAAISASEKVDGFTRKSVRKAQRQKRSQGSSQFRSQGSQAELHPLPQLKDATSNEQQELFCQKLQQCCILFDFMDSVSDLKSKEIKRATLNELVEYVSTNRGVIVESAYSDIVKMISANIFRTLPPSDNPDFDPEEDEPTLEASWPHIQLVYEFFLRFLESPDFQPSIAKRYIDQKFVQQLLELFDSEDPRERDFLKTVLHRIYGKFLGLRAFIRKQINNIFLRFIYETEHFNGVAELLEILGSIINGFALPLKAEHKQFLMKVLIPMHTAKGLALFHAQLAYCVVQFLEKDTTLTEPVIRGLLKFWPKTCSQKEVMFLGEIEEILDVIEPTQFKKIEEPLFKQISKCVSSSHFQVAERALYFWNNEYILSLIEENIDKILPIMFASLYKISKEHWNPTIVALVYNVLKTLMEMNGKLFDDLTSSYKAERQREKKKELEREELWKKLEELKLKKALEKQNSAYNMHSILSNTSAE
UniProt Q15173: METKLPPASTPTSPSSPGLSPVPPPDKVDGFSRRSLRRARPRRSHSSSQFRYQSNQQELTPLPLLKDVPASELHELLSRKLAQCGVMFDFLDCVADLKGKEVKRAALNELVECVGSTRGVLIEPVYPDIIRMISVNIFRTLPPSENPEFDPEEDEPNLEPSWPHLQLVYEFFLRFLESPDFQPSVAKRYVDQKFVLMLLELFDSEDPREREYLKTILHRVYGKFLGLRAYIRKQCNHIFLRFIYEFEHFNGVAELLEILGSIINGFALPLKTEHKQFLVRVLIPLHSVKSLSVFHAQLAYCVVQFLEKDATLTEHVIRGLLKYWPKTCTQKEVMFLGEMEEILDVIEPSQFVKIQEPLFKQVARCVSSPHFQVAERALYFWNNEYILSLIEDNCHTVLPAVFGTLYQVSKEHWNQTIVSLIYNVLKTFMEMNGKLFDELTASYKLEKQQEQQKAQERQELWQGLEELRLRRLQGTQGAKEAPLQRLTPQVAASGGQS

B1: Immediate early response protein 3, IER3 (protein, UniProt P46695 1-156)
chain: MCHSRSCHPTMTILQAPTPAPSTIPGPRRGSGPEIFTFDPLPEPAAAPAGRPSASRGHRKRSRRVLYPRVVRRQLPVEEPNPAKRLLFLLLTIVFCQILMAEEGVPAPLPPEDAPNAASLAPTPVSAVLEPFNLTSEPSDYALDLSTFLQQHPAAF
For B1, the binding [1] was “no binding” and the binding [2] was “no binding”.

— article PMC3660565
